According to PMC10879784:
Results are given in words; binding and its absence hold for the method and conditions named. Binding seen in cells or lysates may run through a third protein. These calls come from enrichment with a bait or labelling near it, and not all partners need be listed. Sequences can lack the tags named with a protein. One block for each molecule: values may come before it.

Sequences of proteins named here, by UniProt entry; tags and fusion partners are left off.
UniProt Q8LA13: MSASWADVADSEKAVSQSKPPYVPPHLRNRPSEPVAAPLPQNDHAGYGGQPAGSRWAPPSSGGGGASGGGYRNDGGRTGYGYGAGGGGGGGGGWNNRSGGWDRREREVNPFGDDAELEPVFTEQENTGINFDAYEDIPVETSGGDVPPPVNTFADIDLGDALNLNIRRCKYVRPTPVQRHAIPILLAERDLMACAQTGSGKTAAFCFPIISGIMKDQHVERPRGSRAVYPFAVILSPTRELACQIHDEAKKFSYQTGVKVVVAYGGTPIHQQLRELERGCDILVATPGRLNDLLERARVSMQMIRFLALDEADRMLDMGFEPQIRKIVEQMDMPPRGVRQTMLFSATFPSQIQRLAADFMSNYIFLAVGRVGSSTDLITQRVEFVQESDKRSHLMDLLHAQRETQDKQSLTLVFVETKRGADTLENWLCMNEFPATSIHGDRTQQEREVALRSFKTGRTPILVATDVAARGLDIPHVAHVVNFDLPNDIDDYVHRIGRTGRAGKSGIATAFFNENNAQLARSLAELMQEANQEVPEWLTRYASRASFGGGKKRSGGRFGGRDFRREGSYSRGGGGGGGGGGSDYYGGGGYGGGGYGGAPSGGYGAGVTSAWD
UniProt Q9M2F9: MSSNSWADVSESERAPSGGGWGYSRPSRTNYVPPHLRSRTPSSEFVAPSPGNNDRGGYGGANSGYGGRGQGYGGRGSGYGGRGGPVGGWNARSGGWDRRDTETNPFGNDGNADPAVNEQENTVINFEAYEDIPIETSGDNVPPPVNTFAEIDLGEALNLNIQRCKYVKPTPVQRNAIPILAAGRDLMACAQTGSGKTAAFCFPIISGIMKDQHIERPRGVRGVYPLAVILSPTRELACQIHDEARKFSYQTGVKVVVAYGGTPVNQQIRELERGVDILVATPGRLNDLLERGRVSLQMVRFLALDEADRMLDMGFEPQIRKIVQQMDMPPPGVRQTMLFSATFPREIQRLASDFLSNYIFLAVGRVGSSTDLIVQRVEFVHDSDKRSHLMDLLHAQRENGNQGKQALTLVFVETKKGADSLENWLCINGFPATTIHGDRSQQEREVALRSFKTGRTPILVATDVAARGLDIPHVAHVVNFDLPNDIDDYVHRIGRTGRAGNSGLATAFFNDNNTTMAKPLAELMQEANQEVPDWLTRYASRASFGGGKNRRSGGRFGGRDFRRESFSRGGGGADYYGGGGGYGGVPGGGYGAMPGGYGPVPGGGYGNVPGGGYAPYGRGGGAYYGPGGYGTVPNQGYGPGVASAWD

Biological target: T1, GFP-AGO1 (ARGONAUTE1, Arabidopsis thaliana) (Arabidopsis thaliana) (UniProt O04379)
T1 sequence: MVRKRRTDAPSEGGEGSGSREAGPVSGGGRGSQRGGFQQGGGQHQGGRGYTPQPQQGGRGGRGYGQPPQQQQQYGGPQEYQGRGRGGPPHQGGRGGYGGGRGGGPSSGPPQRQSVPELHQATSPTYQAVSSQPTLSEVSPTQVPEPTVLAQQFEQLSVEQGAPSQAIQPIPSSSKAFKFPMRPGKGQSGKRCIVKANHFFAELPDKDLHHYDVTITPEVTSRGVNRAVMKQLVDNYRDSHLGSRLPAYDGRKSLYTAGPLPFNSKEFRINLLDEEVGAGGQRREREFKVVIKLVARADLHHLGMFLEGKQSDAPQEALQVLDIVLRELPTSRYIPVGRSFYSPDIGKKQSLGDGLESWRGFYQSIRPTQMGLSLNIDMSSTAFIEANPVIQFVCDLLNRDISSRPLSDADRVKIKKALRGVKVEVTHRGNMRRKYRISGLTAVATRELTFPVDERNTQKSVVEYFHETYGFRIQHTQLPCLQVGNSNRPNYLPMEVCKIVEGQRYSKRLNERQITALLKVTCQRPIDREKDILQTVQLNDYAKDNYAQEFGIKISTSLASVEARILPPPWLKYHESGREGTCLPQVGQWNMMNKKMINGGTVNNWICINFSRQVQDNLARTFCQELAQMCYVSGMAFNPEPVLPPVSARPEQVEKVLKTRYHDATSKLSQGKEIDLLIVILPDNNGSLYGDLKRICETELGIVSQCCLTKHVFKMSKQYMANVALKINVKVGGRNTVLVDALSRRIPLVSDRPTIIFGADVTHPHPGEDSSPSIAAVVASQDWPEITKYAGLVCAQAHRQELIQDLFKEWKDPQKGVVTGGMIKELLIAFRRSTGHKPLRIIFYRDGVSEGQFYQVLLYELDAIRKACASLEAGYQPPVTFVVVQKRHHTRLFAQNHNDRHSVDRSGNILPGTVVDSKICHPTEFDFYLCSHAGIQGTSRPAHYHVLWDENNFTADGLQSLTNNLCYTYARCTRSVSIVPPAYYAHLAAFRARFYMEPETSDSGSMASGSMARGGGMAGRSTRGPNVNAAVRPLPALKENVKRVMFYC
Experiment: affinity purification with mass spectrometry; GFP-AGO1 immunoprecipitated with magnetic microbeads coupled to GFP antibodies (μMACS GFP Isolation Kit) from 7-day-old pAGO1:GFP-AGO1 ago1-27 seedlings after 1 h HS at 37°C; lysis buffer 50mM Tris-HCl pH7,5, 50mM NaCl, 0,25% IGEPAL CA-630, 2mM MgCl2, 5mM DTT; control IPs in Col-0 and the p35S:GFP-3Flag line; nanoLC-MS/MS

Molecule: G3BP1
binding: binds

Molecule: RNA helicase RH11 (from UniProt Q8LA13 1-612)
binding: binds

Molecule: RNA helicase RH52 (from UniProt Q9M2F9 1-646)
binding: binds

B3: DCP5 (protein, UniProt Q9C658 1-611)
chain: MAADNTGSKSSSAADSYVGSLISLTSKSEIRYEGILYNINTDESSIGLQNVRSFGTEGRKKDGPQVPPSDKVYEYILFRGTDIKDLQVKASPPVQPPASTINNDPAIIQSHYPSPMPTSGSLPSTASGSLPDISSHNGQPGQHGMGFQNAMPLYQPGGNLGSWGASPQPPMYWQGFYTPPPNGLPQLHQQSLIRPPHGLPMPNSLQQPLQYPNFNTPPPPTGSSSLQGSSLPEAPSSLFPFSTSSQMLAPSSLPFPGLPPVTLSSSLQSTLQSAPSPSLASEMAPPLLSNKAPITAPPTLPQDTNLLSFSLSTTRATEASTGLPLSNKPSVVTGPISPPQTTPLTSAPVAGVSSSISQDKPKPLLVTPGQLLQSGSSAVSLSPPSTNADKDVEVVQVSSSAGLEQSVPVTSEAQPPILPLPSSARPTQKPNGHSFPNHNGYRGRGRGRGRGAGRSHQVMKFTEDFDFTAMNEKFNKDEVWGHLGKSTTLDGDEDDDSPTVDEAELPKIEAKPVYNKDDFFDSLSSNTIDRESQNSRPRFSEQRKLDTETFGEFSRFRGGRGGRGGYGRNNGYSRGGYGGRGYGGYGGRGGGGGGYGYGGRGQGRGVSNRTT
binding: binds

B5: PAB2 (protein, UniProt P42731 1-629)
chain: MAQVQLQGQTPNGSTAAVTSAPATSGGATATQFGNTSLYVGDLDFNVTDSQLFDAFGQMGTVVTVRVCRDLVTRRSLGYGYVNFTNPQDAARAIQELNYIPLYGKPIRVMYSHRDPSVRRSGAGNIFIKNLDESIDHKALHDTFSSFGNIVSCKVAVDSSGQSKGYGFVQYANEESAQKAIEKLNGMLLNDKQVYVGPFLRRQERDSTANKTKFTNVYVKNLAESTTDDDLKNAFGEYGKITSAVVMKDGEGKSKGFGFVNFENADDAARAVESLNGHKFDDKEWYVGRAQKKSERETELRVRYEQNLKEAADKFQSSNLYVKNLDPSISDEKLKEIFSPFGTVTSSKVMRDPNGTSKGSGFVAFATPEEATEAMSQLSGKMIESKPLYVAIAQRKEDRRVRLQAQFSQVRPVAMQPSVGPRMPVYPPGGPGIGQQMFYGQAPPAMIPPQPGYGYQQQLVPGMRPGGGPVPSFFMPMVQPQQQRPGGGRRPGGIQHSQQQNPMMQQQMHPRGRMFRYPQGRGGSGDVPPYDMGNNMPLTIGALASNLSNATPEQQRTMLGEVLYPLVEQVEAESAAKVTGMLLEMDQTEVLHLLESPEALKAKVAEAMDVLRSVAAGGATEQLASLNLS
binding: binds

The remaining lines, values ahead:

binding: binds
B1: Tudor staphylococcal nuclease TSN2 (protein, UniProt Q9FLT0 1-985)
chain: MATGAATENQWLKGRVKAVTSGDCLVITALTHNRAGPPPEKTITLSSLMAPKMARRGGIDEPFAWESREFLRKLCIGKEVAFKVDYKVEAIAGREFGSVYLGNENLAKLVVQNGWAKVRRPGQQNQDKVSPYIAELEQLEEQAQQEGFGRWSKVPGAAEASIRNLPPSAVGDSGNFDAMGLLAASKGKPMEGIVEQVRDGSTIRVYLLPEFQFVQVFVAGLQAPSMGRRQSTQEAVVDPDVTATSNGDASAETRGPLTTAQRLAASAASSVEVSSDPFAMEAKYFTELRVLNRDVRIVLEGVDKFNNLIGSVYYSDGDTVKDLGLELVENGLAKYVEWSANMLDEEAKKKLKATELQCKKNRVKMWANYVPPASNSKAIHDQNFTGKVVEVVSGDCLVVADDSIPFGSPMAERRVCLSSIRSPKMGNPRREEKPAPYAREAKEFLRQKLIGMEVIVQMEYSRKISPGDGVTTSGAGDRVMDFGSVFLPSPTKGDTAVAAAATPGANIAELIISRGLGTVVRHRDFEERSNHYDALLAAEARAIAGKKNIHSAKDSPALHIADLTVASAKKAKDFLPSLQRINQISAVVEYVLSGHRFKLYIPKESCSIAFAFSGVRCPGRGEPYSEEAIALMRRKIMQRDVEIVVENVDRTGTFLGSMWEKNSKTNAGTYLLEAGLAKMQTGFGADRIPEAHILEMAERSAKNQKLKIWENYVEGEEVVNGSSKVETRQKETLKVVVTEVLGGGRFYVQTVGDQKVASIQNQLAALSLKDAPIIGSFNPKKGDIVLAQFSLDNSWNRAMIVNGPRGAVQSPEEEFEVFYIDYGNQEIVPYSAIRPVDPSVSSAPGLAQLCRLAYIKVPGKEEDFGRDAGEYLHTVTLESGKEFRAVVEERDTSGGKVKGQGTGTELVVTLIAVDDEISVNAAMLQEGIARMEKRRRWEPKDKQAALDALEKFQDEARKSRTGIWEYGDIQSDDEDNVPVRKPGRG

binding: binds
B2: Tudor staphylococcal nuclease TSN1 (protein, UniProt Q8VZG7 1-991)
chain: MATGAENQWLKGRVKAVTSGDCLVITALSHNRAGPPPEKTITFSSLMAPKMARRGGIDEPFAWESKEFLRKLCIGKEVAFKVDYKVEAIAGREFGSVFLGNENLAKLVVKTGWAKVREPGQQNQDKVSPYIKELLQLEELAKQEGYGRWSKVPGAAEASIRNLPPSAIGDSAGFDAMGLLAANKGKPMEGIVEQVRDGSTIRVYLLPEFQFVQVFVAGVQAPSMGRRTTNGSVVETVPDEPNGDVSAESRGPLTTAQRLAASAASSVEVSSDPFATEAKYFTEHRVLSRDVRIVLEGVDKFNNLIGSVHYSDGETVKDLGLELVENGLAKFVEWSANMMEEEAKKKLKAAELQCKKDKVKMWANYVPPATNSKAIHDQNFTGKVVEVVSGDCLIVADDAVPFGSPAAERRVCLSSIRSPKMGNPRREEKPAPYAREAREFLRQRLIGKQVIVQMEYSRKVTQGDGPTTSGAADRFMDFGSVFLPSAAKADSDEVTAPPAAAIAGSQPVGVNIAELVLVRGFGNVVRHRDFEERSNHYDALLAAEARALAGKKGIHSAKESPAMHITDLTVSAAKKAKDFLPSLQRIRRIPAVVEYVLSGHRFKLYIPKITCSIAFSFSGVRCPGRGEPYSEEAISVMRRRIMQRDVEIEVETVDRTGTFLGSMWESRTNVATVLLEAGLAKMQTSFGADRIAEAHLLEQAERSAKNQKLKIWENYVEGEEVSNGNTNTVETRQKETLKVVVTEVLGGGRFYVQSAGDQKIASIQNQLASLSIKDAPIIGSFNPKRGDIVLAQFSLDNSWNRAMIVTAPRAAVQSPDEKFEVFYIDYGNQETVPYSAIRPIDPSVSAAPGLAQLCRLAYIKVPSLEDDFGPEAGEYLHTVTLGSGKEFKAVIEERDTSGGKVKGQGTGTEFVVTLIAVDDEISVNAAMLQEGIARMEKRQKWGHKGKQAALDALEKFQEEARKSRIGIWQYGDIESDDEDTGPARKPAGGRR

binding: binds
B4: VARICOSE (protein, UniProt Q9LTT8 1-1344)
chain: MASSPGNTNPHNTPPFDLGILFKPSSNPYPPPAASYPPPTGPFLHNQYDQQHYAPPGISAQPSPVTQQQQDVSSSSAATNLHPQRTLSYPTPPLNLQSPRSNHNPGTHILALLNNTNNGAPVANQEPSHQLPVVNHNEIARSFPGGSGPIRVPSCKLPKGRRLIGEHAVYDVDVRLQGEIQPQLEVTPITKYGSDPQLVVGRQIAVNKVYICYGLKGGNIRVLNINTALRSLFRGHSQRVTDMAFFAEDVDMLASVSLDGKVFVWKISEGSEGEDQPQITGKIVLALQILGEEDTKHPRVCWHCHKQEILVVSIGKHVLRIDTTKVGRGEVFSAEAPLQCPLDKLIDGVQIVGKHDGEVTDLSMCQWMTTRLVSSSVDGTIKIWQDRKAQPLVVLRPHDGHPVSSATFVTSPERPDHIILITGGPLNREMKIWVSAGEEGWLLPADAESWRCTQTLDLKSSTEPRAEEAFFNQVIALSEAGLLLLANAKRNALYAVHLDYGSSPVGTRMDYLSEFTVTMPILSFIGTNDPPEEPIVKVYCVQTLAIQQYTLDLCLCLPPPIENMGLEKSDSSVSREANLVEGMSEPSGLKPTDLPSVDSVPKPSIIVNRSESANKLSFPSAEATSQAIVPPNGEPKTSGLPSQTSGAGSAYATLPQLPLSPRLSSKLSGYHTPVEAIEPVIPHHELGGKTPSADYSVDRQMDAVGERNLDVSSVEEISRSKDSNVTPDDDVSGMRSPSAFFKHPTHLVTPSEILMGVSSAEASITTEDRRDRDANIQDVNNDPRDTEVEVKEISEARSTQNGEINDHDETENCTSENREKVFCSQVSNLSTEMARDCYPSTEGTFIPGESKAYGQPIKAGDESGVDSRGGPAKLLKGKKQKAKNSQGPGLSSTSSNVANLADSFNEQSQSLSHPMTDLLPQLLAMQETMNQVMASQKEMQRQLSNAATGPIGKESKRLEVALGRMIEKSSKSNADALWARIQEETVKNEKALRDHAQQIVNATTNFMSKELNAMFEKTIKKELAAIGPALARSVVPVIEKTVSSAITESFQRGIGDKAVNQLDKSVNIKLEATVARQIQAQFQTSGKQALQEGLRSSVESSVIPSFEKACKAMFDQIDSAFQKGIAEHTNAAQQRFDSGHSQLAHTLKESITSASSVAQALSRELAETQRNLLALAAAGANSGGSNSLVTQLSGGPLGALLEKVEAPMDPTTELSRLISERKYEESFTSALQRSDVSIVSWLCSQVDLRGLLAMNPLPLSQGVLLSLLQQLACDISKDTSRKLAWMTDVVAAINPSDQMIAVHARPIFEQVYQILHHHRNAPGSDVSAIRLIMHVINSMLMGCK
